Biological target: Ub-Lys-TAMRA (UniProt P0CG48 1-76, Ub is isopeptide-linked to a TAMRA-labeled Lys-Gly dipeptide (modification at the Ub C-terminus))
Experiment: fluorescence polarisation

binding result: binds
B1: RNF114 MUBD construct (residues 137–228) (domain or fragment)
chain: NRYTFPCPYCPEKNFDQEGLVEHCKLFHSTDTKSVVCPICASMPWGDPNYRSANFREHIQRRHRFSYDTFVDYDVDEEDMMNQVLQRSIIDQ

From publication PMC12132378 (bioRxiv, 2025)
